Two substances from article doi:10.1101/2024.12.20.629444 can be followed below.

Amino acid sequences for entries named in this document (tags omitted).
UniProt P46937: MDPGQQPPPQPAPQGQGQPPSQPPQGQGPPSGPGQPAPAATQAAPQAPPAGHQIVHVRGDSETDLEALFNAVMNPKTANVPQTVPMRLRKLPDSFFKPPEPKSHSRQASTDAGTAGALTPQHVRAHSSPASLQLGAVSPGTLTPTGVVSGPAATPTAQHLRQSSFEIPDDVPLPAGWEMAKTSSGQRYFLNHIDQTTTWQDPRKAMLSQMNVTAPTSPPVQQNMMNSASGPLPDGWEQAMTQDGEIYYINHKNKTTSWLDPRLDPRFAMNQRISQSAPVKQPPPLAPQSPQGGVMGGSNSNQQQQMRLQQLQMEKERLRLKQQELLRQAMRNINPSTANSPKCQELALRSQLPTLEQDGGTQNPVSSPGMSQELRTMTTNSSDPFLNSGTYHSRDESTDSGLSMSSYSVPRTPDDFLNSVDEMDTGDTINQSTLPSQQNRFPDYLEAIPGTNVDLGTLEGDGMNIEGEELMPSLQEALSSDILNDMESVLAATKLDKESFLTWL
UniProt Q14839: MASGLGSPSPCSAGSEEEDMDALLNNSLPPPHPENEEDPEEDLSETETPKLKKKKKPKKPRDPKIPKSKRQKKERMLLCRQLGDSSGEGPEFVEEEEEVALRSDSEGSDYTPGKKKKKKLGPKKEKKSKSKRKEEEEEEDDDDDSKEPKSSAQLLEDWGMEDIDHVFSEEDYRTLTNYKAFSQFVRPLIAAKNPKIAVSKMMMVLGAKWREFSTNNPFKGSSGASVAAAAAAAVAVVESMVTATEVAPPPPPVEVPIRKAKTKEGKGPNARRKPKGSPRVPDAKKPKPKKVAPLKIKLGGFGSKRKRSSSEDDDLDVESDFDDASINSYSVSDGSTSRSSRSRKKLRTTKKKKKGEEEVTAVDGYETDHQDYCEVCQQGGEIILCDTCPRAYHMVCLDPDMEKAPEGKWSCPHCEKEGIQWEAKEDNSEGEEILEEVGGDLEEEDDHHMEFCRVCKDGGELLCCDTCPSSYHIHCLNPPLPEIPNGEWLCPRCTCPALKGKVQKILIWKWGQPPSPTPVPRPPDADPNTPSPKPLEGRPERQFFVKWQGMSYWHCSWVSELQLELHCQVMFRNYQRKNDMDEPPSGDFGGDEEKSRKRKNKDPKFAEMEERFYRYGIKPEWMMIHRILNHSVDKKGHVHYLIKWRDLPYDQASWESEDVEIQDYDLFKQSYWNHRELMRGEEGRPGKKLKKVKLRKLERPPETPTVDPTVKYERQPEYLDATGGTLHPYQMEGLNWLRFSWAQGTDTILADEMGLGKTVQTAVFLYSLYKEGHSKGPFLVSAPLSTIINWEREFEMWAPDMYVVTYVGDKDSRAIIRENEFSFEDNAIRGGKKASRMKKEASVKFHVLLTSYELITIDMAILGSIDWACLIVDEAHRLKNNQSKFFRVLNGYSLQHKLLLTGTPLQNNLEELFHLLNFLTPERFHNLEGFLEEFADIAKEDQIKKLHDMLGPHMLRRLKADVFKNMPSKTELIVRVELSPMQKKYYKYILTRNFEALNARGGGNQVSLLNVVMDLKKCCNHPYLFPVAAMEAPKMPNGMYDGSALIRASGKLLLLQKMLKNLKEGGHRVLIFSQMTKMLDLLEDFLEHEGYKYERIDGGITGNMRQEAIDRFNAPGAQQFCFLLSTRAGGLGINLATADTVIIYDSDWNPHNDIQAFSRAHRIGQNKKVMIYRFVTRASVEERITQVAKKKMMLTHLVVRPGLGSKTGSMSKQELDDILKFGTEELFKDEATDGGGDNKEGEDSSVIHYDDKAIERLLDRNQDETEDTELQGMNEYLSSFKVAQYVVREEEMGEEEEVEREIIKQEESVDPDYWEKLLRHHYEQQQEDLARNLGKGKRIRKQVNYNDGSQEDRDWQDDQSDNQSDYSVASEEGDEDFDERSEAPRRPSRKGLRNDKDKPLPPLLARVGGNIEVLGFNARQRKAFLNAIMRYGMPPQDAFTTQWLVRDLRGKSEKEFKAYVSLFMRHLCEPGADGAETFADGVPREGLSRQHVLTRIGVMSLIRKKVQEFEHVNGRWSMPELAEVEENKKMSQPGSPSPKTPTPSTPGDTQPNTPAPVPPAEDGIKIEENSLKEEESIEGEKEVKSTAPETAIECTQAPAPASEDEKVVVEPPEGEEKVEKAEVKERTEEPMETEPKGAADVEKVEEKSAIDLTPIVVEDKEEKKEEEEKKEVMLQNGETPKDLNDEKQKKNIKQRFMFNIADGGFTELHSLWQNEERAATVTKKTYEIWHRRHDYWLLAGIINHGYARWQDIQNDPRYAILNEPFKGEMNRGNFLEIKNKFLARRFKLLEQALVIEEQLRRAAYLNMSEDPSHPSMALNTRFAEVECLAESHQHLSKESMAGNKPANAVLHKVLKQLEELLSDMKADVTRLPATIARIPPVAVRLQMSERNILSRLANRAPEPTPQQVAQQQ
UniProt Q5UIP0: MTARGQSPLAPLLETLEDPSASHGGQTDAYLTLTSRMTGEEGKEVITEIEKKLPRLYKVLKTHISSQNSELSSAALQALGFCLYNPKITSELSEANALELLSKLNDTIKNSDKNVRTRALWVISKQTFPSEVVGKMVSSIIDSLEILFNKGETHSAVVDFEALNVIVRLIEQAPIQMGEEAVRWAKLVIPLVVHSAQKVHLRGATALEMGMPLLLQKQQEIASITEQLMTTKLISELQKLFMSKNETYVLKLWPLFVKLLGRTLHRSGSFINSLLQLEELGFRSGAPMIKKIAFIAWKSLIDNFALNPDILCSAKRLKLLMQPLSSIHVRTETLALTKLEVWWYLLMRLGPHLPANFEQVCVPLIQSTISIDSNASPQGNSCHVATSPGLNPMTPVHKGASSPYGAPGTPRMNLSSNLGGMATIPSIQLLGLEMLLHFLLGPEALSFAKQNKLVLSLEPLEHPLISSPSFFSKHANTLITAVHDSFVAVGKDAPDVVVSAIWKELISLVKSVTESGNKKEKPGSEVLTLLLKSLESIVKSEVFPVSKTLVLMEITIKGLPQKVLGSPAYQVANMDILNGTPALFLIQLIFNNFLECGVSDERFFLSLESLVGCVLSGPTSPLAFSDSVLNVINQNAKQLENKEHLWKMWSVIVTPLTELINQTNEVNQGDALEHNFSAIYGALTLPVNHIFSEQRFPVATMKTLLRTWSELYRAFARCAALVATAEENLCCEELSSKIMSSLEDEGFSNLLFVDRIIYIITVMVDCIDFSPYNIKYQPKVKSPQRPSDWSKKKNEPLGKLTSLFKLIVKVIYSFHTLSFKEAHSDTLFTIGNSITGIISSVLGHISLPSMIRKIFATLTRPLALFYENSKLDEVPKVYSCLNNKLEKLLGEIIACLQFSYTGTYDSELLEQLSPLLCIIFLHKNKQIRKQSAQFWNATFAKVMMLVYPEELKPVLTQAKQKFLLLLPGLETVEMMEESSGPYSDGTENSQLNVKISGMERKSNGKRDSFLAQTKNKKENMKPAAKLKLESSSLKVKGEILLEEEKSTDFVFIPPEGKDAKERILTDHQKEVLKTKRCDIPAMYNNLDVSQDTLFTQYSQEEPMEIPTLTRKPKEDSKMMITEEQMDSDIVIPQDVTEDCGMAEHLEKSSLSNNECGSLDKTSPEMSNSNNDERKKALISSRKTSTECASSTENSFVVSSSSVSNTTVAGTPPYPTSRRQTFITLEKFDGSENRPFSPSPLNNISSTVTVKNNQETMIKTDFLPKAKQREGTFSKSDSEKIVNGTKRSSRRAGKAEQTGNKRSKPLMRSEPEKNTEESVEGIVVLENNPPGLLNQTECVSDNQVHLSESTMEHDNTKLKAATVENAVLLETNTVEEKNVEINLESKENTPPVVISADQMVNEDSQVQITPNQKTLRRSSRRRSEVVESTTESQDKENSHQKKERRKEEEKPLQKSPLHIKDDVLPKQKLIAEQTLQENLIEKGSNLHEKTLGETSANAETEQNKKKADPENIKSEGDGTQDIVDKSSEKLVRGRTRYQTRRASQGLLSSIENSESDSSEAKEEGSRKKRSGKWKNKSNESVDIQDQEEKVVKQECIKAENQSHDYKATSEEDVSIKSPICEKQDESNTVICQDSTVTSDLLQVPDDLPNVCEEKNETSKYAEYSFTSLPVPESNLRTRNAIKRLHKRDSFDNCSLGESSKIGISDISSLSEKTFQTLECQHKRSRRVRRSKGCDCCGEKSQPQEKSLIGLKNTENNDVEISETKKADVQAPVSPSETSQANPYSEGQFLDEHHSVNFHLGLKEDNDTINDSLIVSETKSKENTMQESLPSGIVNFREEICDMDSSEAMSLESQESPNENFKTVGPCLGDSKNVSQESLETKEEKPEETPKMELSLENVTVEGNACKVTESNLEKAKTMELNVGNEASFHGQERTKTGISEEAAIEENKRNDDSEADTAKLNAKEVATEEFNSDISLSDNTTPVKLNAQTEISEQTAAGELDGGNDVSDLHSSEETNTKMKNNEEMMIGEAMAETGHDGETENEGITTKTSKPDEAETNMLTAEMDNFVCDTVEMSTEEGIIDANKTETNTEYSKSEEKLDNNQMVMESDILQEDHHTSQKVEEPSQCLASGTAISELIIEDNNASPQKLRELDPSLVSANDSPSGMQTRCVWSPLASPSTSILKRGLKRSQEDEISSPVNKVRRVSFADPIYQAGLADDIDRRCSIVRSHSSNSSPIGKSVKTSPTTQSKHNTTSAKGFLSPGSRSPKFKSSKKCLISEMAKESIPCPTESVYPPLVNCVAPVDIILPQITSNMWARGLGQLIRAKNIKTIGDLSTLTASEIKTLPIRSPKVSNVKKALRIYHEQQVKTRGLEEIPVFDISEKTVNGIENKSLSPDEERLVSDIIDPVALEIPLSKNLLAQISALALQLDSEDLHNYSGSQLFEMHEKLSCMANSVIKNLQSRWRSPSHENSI

In assay [1] the target is Yes-associated protein (human (endogenous in SCC13, NHK and HARA)) (UniProt P46937). Put plainly: co-IP.
Assay [2] has the same target. Put plainly: proximity ligation.
The target is the same in assay [3]. Put plainly: co-IP. The source holds these as a separate data set.

No constants are given. Whether binding was seen depends on the method and setting. Binding seen in cells or lysates may run through a third protein. Some results given as binding are weak or reduced against the parent protein; the word gives no strength.

“Chromodomain-helicase-DNA-binding protein 4 (from UniProt Q14839 1-1912)”: the binding entry in assay [1] was “binds”.

As for RIF1 (from UniProt Q5UIP0 1-2472), the binding result in assay [1], in assay [2] and in assay [3] was “binds” in each case.
